The exact form of at least one protein or probe is not confirmed. For part of these data: A negative result means that nothing was seen under these conditions.
Experiments:
PDGF-AA (Homo sapiens) = PDGF-AA (Homo sapiens) (UniProt P04085); test: binding assay; settings: [PEG40K]-NH2-dCdAdGdGdCfUdAfCmG-PEG-dCdGTdAmGdAmGdCdAfUfCmA-PEG-TdGdATfCfCfUmG-3T (f 2'-F, m 2'-OMe, d deoxy; PEG spacers); AA isoform not recognized
PDGF-BB (Rattus) = PDGF-BB (Rattus) (UniProt Q05028); test: binding assay; settings: [PEG40K]-NH2-dCdAdGdGdCfUdAfCmG-PEG-dCdGTdAmGdAmGdCdAfUfCmA-PEG-TdGdATfCfCfUmG-3T (f 2'-F, m 2'-OMe, d deoxy; PEG spacers); equivalent affinity to human PDGF
PDGF-BB (Homo sapiens) = PDGF-BB (Homo sapiens) (UniProt P01127); test: activity in cells; settings: [PEG40K]-NH2-dCdAdGdGdCfUdAfCmG-PEG-dCdGTdAmGdAmGdCdAfUfCmA-PEG-TdGdATfCfCfUmG-3T (f 2'-F, m 2'-OMe, d deoxy; PEG spacers); cellular IC50; PDGF isoform not stated
[1] = target: TGF-beta2 (mature, wild type) (Homo sapiens) (UniProt P61812); test: filter binding; settings: 2'-F all C and U, 2'-OH purines, 3'-inverted T (3T); ±0.6, unit implied; 2.5±0.3 nM in FIG. 6C, 1 nM in Example 8 table; 50 mM Hepes pH 7.4, 1 mM MgCl2, 1 mM CaCl2, 140 mM NaCl, room temperature; purified recombinant protein
[2] = target: TGF-beta2 N-terminal His-tagged (long tag) (Homo sapiens) (UniProt P61812); test: filter binding; settings: 2'-F all C and U, 2'-OH purines, 3'-inverted T (3T); purified recombinant protein; protein details: N-terminal His6 plus about 30 extra residues
[3] = target: TGF-beta2 (mature, wild type) (Homo sapiens) (UniProt P61812); test: activity in cells; settings: 2'-F all C and U, 2'-OH purines, 3'-inverted T (3T); cell IC50; purified recombinant protein

Amino acid sequences for entries named in this document (tags omitted). Chains listed by the source or under a name are the forms on record and can include a tag or linker. Residues count along the entry.
UniProt Q05028, 74-182: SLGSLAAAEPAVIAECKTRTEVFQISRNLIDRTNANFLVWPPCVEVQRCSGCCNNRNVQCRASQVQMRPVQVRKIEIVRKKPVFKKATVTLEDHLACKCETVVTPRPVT
UniProt P61812, other isoform, or with tags, fused parts or gaps: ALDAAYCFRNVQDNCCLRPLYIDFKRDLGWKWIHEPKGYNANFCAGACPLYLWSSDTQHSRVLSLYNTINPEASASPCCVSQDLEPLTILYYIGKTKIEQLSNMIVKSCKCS

Sequence	binding result (PDGF-AA (Homo sapiens))	binding result (PDGF-BB (Rattus))	IC50 (PDGF-BB (Homo sapiens)) [nM]	Kd [1] [nM]	Kd [2] [nM]	IC50 [3] [nM]
CAGGCUACGCGTAGAGCAUCATGATCCUG [ARC127]	no binding	binds	2	–	–	–
GGAGGUUAUUACAGAGUCUGUAUAGCUGUACUCC [ARC77]	–	–	–	3.6	> 500	10
